Test results taken from the supplement of paper PMC10849652.
The other results are listed elsewhere or left out.

Sequences of proteins named here, by UniProt entry; tags and fusion partners are left off. A change or cut given only in a name is not applied to a line headed by its entry.
UniProt Q9NQW6: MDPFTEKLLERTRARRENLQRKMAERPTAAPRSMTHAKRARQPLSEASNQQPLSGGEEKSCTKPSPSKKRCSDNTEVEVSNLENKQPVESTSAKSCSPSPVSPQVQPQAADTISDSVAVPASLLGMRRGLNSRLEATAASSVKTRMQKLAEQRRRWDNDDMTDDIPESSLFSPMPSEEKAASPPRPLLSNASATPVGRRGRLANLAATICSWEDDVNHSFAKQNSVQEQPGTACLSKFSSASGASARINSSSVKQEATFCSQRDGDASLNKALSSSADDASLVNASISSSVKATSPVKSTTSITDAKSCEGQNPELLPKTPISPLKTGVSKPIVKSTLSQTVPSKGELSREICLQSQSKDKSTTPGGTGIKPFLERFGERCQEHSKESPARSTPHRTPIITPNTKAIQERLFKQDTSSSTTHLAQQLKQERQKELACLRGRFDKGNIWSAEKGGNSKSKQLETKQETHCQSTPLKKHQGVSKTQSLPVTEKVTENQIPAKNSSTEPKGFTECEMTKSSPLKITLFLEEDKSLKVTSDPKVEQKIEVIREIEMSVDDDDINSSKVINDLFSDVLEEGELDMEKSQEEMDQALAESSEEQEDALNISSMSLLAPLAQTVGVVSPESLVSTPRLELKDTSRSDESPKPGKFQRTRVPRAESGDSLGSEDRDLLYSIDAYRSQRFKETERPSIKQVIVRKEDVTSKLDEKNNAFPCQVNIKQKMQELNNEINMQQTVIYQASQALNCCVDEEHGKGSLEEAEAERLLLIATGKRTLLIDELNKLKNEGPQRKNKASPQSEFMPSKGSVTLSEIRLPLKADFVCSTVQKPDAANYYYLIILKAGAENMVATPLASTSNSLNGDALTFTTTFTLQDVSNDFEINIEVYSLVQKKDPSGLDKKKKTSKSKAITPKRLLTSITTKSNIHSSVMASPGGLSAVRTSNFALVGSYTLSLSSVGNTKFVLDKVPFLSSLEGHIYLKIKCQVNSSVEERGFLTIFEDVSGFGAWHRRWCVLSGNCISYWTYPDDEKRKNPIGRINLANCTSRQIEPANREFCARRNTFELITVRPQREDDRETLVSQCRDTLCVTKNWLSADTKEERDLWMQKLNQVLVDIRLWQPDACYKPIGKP
UniProt Q96PC3: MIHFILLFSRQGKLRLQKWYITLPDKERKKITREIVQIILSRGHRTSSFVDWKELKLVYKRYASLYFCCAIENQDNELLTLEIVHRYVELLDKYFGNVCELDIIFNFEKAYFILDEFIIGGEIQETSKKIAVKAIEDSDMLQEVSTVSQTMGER
UniProt Q5I7T1: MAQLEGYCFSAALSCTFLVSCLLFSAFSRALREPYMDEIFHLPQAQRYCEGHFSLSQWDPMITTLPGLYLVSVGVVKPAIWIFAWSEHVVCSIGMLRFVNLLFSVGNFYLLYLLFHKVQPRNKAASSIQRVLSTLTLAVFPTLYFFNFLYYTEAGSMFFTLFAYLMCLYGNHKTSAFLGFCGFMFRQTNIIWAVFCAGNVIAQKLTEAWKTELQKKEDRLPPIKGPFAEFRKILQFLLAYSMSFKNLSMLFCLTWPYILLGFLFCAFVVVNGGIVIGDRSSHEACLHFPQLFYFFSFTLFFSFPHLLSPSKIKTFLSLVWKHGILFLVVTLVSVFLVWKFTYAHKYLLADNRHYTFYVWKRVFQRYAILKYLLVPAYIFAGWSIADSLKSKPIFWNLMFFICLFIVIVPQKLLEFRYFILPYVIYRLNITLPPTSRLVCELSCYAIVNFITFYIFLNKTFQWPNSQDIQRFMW
UniProt Q9NXW9: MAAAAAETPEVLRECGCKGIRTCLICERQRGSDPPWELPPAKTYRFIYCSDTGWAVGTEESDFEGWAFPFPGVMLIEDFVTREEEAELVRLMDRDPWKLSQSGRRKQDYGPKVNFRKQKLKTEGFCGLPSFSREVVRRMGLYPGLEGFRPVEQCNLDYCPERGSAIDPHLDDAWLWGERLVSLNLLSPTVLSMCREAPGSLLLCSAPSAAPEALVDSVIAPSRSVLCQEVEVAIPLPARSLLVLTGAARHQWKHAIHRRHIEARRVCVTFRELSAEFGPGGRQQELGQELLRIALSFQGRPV
UniProt Q9NW15: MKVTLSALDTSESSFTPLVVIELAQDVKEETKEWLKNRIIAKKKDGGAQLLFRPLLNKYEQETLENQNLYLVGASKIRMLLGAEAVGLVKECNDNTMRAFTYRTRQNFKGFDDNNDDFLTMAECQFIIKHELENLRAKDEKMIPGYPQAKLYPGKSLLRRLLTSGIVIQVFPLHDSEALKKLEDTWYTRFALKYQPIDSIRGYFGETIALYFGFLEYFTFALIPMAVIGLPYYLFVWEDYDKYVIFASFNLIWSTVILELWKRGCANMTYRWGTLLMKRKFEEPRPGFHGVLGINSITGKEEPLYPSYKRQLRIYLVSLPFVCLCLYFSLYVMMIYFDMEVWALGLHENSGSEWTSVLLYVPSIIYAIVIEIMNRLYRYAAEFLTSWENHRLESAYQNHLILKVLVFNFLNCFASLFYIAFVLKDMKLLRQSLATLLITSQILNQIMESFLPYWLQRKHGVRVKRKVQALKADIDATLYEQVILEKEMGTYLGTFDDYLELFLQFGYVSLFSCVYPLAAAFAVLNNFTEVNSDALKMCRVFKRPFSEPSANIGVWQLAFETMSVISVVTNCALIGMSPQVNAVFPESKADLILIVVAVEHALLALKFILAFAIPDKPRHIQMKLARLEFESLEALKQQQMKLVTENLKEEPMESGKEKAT
UniProt Q6NS38: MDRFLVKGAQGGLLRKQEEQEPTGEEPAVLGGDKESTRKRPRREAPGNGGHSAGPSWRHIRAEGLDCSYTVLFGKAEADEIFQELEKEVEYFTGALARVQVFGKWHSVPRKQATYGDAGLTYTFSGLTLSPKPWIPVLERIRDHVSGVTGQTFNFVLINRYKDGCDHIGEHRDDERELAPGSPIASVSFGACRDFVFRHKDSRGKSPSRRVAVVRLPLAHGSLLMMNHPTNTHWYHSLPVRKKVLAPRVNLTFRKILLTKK
UniProt Q9NP73: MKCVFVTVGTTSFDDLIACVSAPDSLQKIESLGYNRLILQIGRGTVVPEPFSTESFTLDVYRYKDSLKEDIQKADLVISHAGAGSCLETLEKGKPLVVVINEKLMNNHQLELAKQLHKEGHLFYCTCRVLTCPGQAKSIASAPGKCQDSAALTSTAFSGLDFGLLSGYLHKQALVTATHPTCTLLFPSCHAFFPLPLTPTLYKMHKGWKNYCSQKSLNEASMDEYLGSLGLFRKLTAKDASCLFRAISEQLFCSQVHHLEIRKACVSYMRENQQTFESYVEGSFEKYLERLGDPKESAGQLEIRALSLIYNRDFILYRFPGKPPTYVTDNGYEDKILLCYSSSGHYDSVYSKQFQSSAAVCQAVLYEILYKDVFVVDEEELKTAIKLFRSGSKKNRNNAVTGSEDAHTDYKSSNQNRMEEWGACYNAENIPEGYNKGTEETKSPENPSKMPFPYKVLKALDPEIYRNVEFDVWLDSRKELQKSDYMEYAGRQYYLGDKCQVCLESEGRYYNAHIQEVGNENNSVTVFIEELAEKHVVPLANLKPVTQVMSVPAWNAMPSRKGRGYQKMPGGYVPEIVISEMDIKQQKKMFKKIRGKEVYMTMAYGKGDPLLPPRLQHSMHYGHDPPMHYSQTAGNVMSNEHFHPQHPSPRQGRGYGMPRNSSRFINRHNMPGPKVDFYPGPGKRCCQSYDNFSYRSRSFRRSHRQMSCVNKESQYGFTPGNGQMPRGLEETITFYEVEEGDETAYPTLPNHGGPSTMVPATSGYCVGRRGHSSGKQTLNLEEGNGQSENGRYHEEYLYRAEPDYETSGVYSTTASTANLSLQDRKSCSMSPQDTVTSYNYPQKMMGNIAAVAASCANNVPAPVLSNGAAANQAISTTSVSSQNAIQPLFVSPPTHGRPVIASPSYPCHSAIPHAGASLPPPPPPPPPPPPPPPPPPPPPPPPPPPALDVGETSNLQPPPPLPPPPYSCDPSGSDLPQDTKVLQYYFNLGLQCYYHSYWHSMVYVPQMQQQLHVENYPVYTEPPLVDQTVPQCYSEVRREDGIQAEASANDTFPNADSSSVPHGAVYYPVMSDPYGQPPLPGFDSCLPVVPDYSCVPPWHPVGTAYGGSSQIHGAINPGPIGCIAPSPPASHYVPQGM
UniProt Q9BVK2: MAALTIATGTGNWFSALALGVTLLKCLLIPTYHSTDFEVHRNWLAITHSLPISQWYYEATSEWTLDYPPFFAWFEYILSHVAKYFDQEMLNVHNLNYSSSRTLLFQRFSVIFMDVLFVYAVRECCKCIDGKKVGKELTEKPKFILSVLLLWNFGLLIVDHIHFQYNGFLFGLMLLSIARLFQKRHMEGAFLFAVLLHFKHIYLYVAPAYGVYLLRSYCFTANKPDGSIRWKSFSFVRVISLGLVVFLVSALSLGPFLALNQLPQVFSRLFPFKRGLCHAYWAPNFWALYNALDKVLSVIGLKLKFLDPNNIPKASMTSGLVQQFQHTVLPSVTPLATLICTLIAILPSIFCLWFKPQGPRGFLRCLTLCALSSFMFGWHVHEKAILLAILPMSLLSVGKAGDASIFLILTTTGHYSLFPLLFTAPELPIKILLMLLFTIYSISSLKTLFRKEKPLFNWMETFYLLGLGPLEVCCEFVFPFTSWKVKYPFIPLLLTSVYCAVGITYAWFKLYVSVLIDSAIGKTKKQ
UniProt Q9Y2T2: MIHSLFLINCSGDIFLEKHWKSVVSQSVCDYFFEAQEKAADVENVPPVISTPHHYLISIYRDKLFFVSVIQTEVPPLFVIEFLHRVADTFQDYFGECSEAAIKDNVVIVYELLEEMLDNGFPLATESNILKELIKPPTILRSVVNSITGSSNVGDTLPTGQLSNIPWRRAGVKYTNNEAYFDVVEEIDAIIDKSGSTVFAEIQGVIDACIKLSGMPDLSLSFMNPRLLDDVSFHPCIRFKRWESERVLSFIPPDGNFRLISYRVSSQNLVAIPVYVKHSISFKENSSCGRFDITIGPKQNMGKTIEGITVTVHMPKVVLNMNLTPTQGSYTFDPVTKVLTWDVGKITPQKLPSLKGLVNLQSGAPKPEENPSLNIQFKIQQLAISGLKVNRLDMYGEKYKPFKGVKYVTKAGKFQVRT
UniProt Q63HQ0: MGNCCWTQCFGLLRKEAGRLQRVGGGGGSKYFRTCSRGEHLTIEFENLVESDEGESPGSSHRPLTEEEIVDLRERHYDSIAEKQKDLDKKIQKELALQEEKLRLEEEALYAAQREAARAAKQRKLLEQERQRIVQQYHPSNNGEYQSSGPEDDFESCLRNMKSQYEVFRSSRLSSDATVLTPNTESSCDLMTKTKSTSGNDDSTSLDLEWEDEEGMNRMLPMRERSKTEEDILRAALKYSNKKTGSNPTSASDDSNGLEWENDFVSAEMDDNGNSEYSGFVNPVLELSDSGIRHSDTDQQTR
UniProt P63010: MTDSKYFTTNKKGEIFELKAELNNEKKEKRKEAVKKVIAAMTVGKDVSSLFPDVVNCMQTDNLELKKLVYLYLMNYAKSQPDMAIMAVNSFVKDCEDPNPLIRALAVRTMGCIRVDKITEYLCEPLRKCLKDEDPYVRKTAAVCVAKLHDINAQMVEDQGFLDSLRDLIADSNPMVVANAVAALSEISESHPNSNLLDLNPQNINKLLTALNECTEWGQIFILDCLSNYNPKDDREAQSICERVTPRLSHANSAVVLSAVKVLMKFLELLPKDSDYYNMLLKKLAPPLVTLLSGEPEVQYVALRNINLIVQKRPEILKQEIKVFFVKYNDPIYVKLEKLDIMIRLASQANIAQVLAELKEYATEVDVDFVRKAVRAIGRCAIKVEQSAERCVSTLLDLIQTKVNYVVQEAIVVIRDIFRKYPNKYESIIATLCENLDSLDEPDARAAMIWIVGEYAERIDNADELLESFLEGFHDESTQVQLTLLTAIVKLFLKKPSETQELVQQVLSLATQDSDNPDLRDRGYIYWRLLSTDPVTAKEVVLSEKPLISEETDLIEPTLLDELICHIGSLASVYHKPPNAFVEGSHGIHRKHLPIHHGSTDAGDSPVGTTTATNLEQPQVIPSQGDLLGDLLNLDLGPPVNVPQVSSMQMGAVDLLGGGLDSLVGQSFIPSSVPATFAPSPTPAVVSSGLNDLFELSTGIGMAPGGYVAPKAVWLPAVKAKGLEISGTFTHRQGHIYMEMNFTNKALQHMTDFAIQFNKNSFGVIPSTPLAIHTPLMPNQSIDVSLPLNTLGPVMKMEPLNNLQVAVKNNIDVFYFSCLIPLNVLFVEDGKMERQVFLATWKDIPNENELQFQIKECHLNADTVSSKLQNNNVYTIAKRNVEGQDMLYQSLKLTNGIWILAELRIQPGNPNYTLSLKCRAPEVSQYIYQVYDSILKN

Assays:
Assay in all cases: log2 fold change, soluble protein after heating vs DMSO (PISA); higher = thermal stabilisation; K562 lysate, 10 uM; active = over 0.2 and 3.5 SD of the protein, either way, in both replicates (recomputed)
ibrutinib = compound: C=CC(=O)N1CCC[C@@H](n2nc(-c3ccc(Oc4ccccc4)cc3)c3c(N)ncnc32)C1 [ibrutinib]
In short: (§1)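 A 30 min treatment with 10 μM compound was applied to crude K562 extract at 1 mg/mL protein in PBS pH 7.4 with 1 mM MgCl2. Heating for 3 min spanned 48°C-58°C, after which aliquots were pooled, adjusted to 0.5% NP-40 at 4°C and spun at 21,000xg for 90 min. TMTpro 16plex LC-MS/MS of the supernatant, with channel sums equalised, gave values recorded as log-two fold change in thermal stability against solvent controls, from duplicates.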

[1] = compound: CC(=O)c1cnc2ccc(-c3cc(Cl)c(O)c(Cl)c3)nc2c1N[C@H]1CC[C@H](CN(C)C)CC1
In short: as §1

ralimetinib = compound: CC(C)(C)Cn1c(N)nc2ccc(-c3[nH]c(C(C)(C)C)nc3-c3ccc(F)cc3)nc21 [ralimetinib]
In short: as §1

[2] = compound: CC(C)(O)CC(=O)NCCn1ccc2ncnc(Nc3ccc(Oc4cccc(C(F)(F)F)c4)c(Cl)c3)c21
In short: as §1

[3] = compound: CC(C)C1=C2N=C(C=C(N2N=C1)NCC3=CC=CC=C3)NCCCCCCN
In short: as §1

[4] = compound: CC1=C(C(CC(=O)N1)C2=CC=C(C=C2)C(F)(F)F)C(=O)NC3=C(C=C4C(=C3)C=NN4)F
In short: as §1

[5] = compound: CC1=C(C2=C(C=C1)C(=O)C3=CC=CC=C3N2CCCN)C
In short: as §1

[6] = compound: CC1=C(C=C(C=C1)NC(=O)C2=CC(=CC=C2)C(C)(C)C#N)NC3=CC4=C(C=C3)N=CN(C4=O)C
In short: as §1

[7] = compound: CC1=C(C=C(C=C1)NC(=O)C2=CC(=CC=C2)N(C)C)NC(=O)C3=CC=C(C=C3)O
In short: as §1

[8] = compound: CC1=CC=C(C=C1)SC2=C3C=C(SC3=CN=C2)C(=O)N
In short: as §1

vemurafenib = compound: CCCS(=O)(=O)Nc1ccc(F)c(C(=O)c2c[nH]c3ncc(-c4ccc(Cl)cc4)cc23)c1F [vemurafenib]
In short: as §1

[9] = compound: CCCS(=O)(=O)Nc1ccc(F)c(C(=O)c2c[nH]c3ncc(Cl)cc23)c1F
In short: as §1

barasertib = compound: CCN(CCCOc1ccc2c(Nc3cc(CC(=O)Nc4cccc(F)c4)[nH]n3)ncnc2c1)CCOP(=O)(O)O [barasertib]
In short: as §1

[10] = compound: CC[C@@H]1C(=O)N(C)c2cnc(Nc3ccc(C(=O)NC4CCN(C)CC4)cc3OC)nc2N1C1CCCC1
In short: as §1

volasertib = compound: CC[C@@H]1C(=O)N(C)c2cnc(Nc3ccc(C(=O)N[C@H]4CC[C@H](N5CCN(CC6CC6)CC5)CC4)cc3OC)nc2N1C(C)C [volasertib]
In short: as §1

[11] = compound: CCn1c(C(=O)N(C2CC2)C2CC2)cc2c3c(ncn3C)c(Nc3cc(C)n(C)n3)nc21
In short: as §1

[12] = compound: CCn1cc(-c2ccnc3[nH]c(-c4cccc(CN(C)C)c4)cc23)c(-c2ccc(NC(=O)N(C)C)cc2)n1
In short: as §1

[13] = compound: CN1CCC(CNc2ccc3ncc(-c4cccc(OC(F)(F)F)c4)n3n2)CC1
In short: as §1

saracatinib = compound: CN1CCN(CCOc2cc(OC3CCOCC3)c3c(Nc4c(Cl)ccc5c4OCO5)ncnc3c2)CC1 [saracatinib]
In short: as §1

sotrastaurin = compound: CN1CCN(c2nc(C3=C(c4c[nH]c5ccccc45)C(=O)NC3=O)c3ccccc3n2)CC1 [sotrastaurin]
In short: as §1

| Target | log2 fold change (ibrutinib) | log2 fold change [1] | log2 fold change (ralimetinib) | log2 fold change [2] | log2 fold change [3] | log2 fold change [4] | log2 fold change [5] | log2 fold change [6] | log2 fold change [7] | log2 fold change [8] | log2 fold change (vemurafenib) | log2 fold change [9] | log2 fold change (barasertib) | log2 fold change [10] | log2 fold change (volasertib) | log2 fold change [11] | log2 fold change [12] | log2 fold change [13] | log2 fold change (saracatinib) | log2 fold change (sotrastaurin) |
| --- | --- | --- | --- | --- | --- | --- | --- | --- | --- | --- | --- | --- | --- | --- | --- | --- | --- | --- | --- | --- |
| ANLN (UniProt Q9NQW6) | inactive: 0.025 | inactive: -0.027 | inactive: 0.02 | inactive: -0.001 | inactive: -0.014 | inactive: 0.02 | inactive: -0.01 | inactive: 0.026 | inactive: 0.029 | inactive: -0.04 | inactive: -0.012 | inactive: 0.019 | inactive: 0.003 | inactive: 0.01 | inactive: -0.014 | inactive: -0.035 | inactive: -0.067 | inactive: -0.014 | inactive: 0.002 | inactive: 0.009 |
| AP1S3 isoform 4 (UniProt Q96PC3) | inactive: 0.106 | inactive: 0.014 | inactive: 0.013 | inactive: -0.099 | inactive: -0.052 | inactive: 0.089 | inactive: 0.016 |  | inactive: -0.068 | inactive: -0.009 |  | inactive: -0.016 | inactive: -0.365 |  | inactive: -0.101 | inactive: 0.082 | inactive: -0.16 | inactive: -0.002 | inactive: -0.047 |  |
| AP3B1 (UniProt O00203) | inactive: 0.028 | inactive: -0.023 | inactive: 0 | inactive: -0.001 | inactive: 0.018 | inactive: 0.016 | inactive: -0.015 | inactive: 0.003 | inactive: 0.028 | inactive: -0.003 | inactive: 0.024 | inactive: -0.01 | inactive: 0.027 | inactive: -0.014 | inactive: -0.008 | inactive: -0.006 | inactive: -0.043 | inactive: 0.01 | inactive: -0.023 | inactive: -0.003 |
| ANAPC1 (UniProt Q9H1A4) | inactive: 0.024 | inactive: -0.005 | inactive: 0 | inactive: -0.008 | inactive: 0.013 | inactive: 0.009 | inactive: -0.008 | inactive: -0.002 | inactive: 0.01 | inactive: -0.003 | inactive: 0.005 | inactive: 0.041 | inactive: 0.036 | inactive: 0.016 | inactive: -0.046 | inactive: 0.011 | inactive: -0.081 | inactive: 0.019 | inactive: 0.026 | inactive: -0.003 |
| ALG10B (UniProt Q5I7T1) | inactive: -0.067 | inactive: -0.075 | inactive: -0.021 | inactive: 0.017 | inactive: 0.004 | inactive: -0.008 | inactive: 0.056 | inactive: -0.034 | inactive: 0.011 | inactive: -0.073 |  | inactive: 0.039 | inactive: -0.024 |  | inactive: -0.06 | inactive: 0.007 | inactive: -0.117 | inactive: 0.011 | inactive: 0.098 | inactive: 0.054 |
| AMPD3 isoform 4 (UniProt Q01432) | inactive: 0.05 | inactive: 0.001 | inactive: 0.037 | inactive: -0.041 | inactive: -0.019 | inactive: -0.029 | inactive: 0.011 | inactive: 0.006 | inactive: -0.004 | inactive: -0.005 | inactive: -0.021 | inactive: 0.005 | inactive: 0.017 | inactive: -0.033 | inactive: -0.026 | inactive: -0.029 | inactive: 0.1 | inactive: -0.046 | inactive: 0.043 | inactive: 0.024 |
| ALKBH4 (UniProt Q9NXW9) | inactive: 0.076 | inactive: 0.056 | inactive: 0.032 | inactive: 0.003 | inactive: -0.031 | inactive: 0.031 | inactive: -0.036 | inactive: 0.004 | inactive: -0.006 | inactive: 0.002 | inactive: 0.061 | inactive: 0.018 | inactive: 0.086 | inactive: -0.133 | inactive: -0.068 | inactive: 0.074 | inactive: 0.025 | inactive: 0 | inactive: -0.019 | inactive: 0.036 |
| ANKRD26 (UniProt Q9UPS8) | inactive: 0.116 | inactive: 0.191 | inactive: -0.05 | inactive: 0.003 | inactive: 0.003 | inactive: -0.088 |  | inactive: 0.002 | inactive: 0 | inactive: -0.238 | inactive: -0.277 | inactive: -0.079 | inactive: 0.267 | inactive: 0.146 | inactive: 0.02 | inactive: -0.062 |  |  |  | inactive: -0.014 |
| ANO10 (UniProt Q9NW15) | inactive: 0.051 | inactive: 0.001 | inactive: -0.031 | inactive: -0.019 | inactive: 0.014 | inactive: -0.023 | inactive: 0.032 | inactive: 0.003 | inactive: 0.015 | inactive: 0.044 | inactive: -0.003 | inactive: 0.022 | inactive: -0.034 | inactive: -0.037 | inactive: -0.01 | inactive: 0 | inactive: -0.03 | inactive: -0.044 | inactive: 0 | inactive: 0.025 |
| ALKBH2 (UniProt Q6NS38) | inactive: 0.004 | inactive: -0.029 | inactive: -0.014 | inactive: -0.051 | inactive: 0.068 | inactive: 0.03 | inactive: 0.022 | inactive: 0.123 | inactive: 0.13 | inactive: -0.013 | inactive: -0.008 | inactive: 0.043 | inactive: 0.062 | inactive: 0.039 | inactive: 0.037 | inactive: -0.089 | inactive: -0.098 | inactive: 0.019 | inactive: -0.066 | inactive: 0.135 |
| ALG13 (UniProt Q9NP73) | inactive: 0.118 | inactive: 0.037 | inactive: 0.008 | inactive: 0.026 | inactive: 0.022 | inactive: 0.065 | inactive: -0.025 | inactive: 0.063 | inactive: 0.012 | inactive: -0.001 | inactive: 0.014 | inactive: 0.015 | inactive: 0.054 | inactive: 0.041 | inactive: -0.041 | inactive: -0.016 | inactive: -0.14 | inactive: 0.086 | inactive: 0.023 | inactive: 0.017 |
| ALG8 (UniProt Q9BVK2) | inactive: 0.017 | inactive: -0.013 | inactive: 0.013 | inactive: 0.036 | inactive: -0.028 | inactive: -0.005 | inactive: 0.054 | inactive: 0.027 | inactive: -0.011 | inactive: -0.003 | inactive: -0.038 | inactive: -0.013 | inactive: 0 | inactive: -0.084 | inactive: 0.034 | inactive: 0.045 | active: -0.316 | inactive: 0.001 | inactive: 0.005 | inactive: 0.038 |
| AP3M1 (UniProt Q9Y2T2) | inactive: 0.002 | inactive: -0.009 | inactive: 0.01 | inactive: -0.021 | inactive: 0.022 | inactive: 0.013 | inactive: -0.006 | inactive: 0.007 | inactive: 0.011 | inactive: 0.007 | inactive: -0.03 | inactive: 0.017 | inactive: 0.028 | inactive: -0.01 | inactive: 0.016 | inactive: 0.012 | inactive: -0.063 | inactive: -0.002 | inactive: -0.013 | inactive: -0.004 |
| AP1AR (UniProt Q63HQ0) | inactive: 0.016 | inactive: 0.016 | inactive: -0.002 | inactive: 0.036 | inactive: 0.03 | inactive: -0.063 |  | inactive: 0.027 | inactive: 0.085 | inactive: 0.004 | inactive: 0.031 | inactive: -0.016 | inactive: -0.025 | inactive: 0.055 | inactive: -0.009 | inactive: 0.017 | inactive: 0.017 | inactive: -0.044 |  | inactive: 0.059 |
| AP2B1 isoform 2 (UniProt P63010) | inactive: 0.003 | inactive: 0.005 | inactive: 0.003 | inactive: -0.002 | inactive: -0.018 | inactive: -0.022 | inactive: -0.001 | inactive: 0.042 | inactive: -0.02 | inactive: -0.008 | inactive: 0.017 | inactive: 0.024 | inactive: -0.011 | inactive: 0.023 | inactive: -0.009 | inactive: 0.005 | inactive: -0.036 | inactive: 0.028 | inactive: -0.023 | inactive: -0.014 |

Limited to log2 fold change [10] and log2 fold change [3], for some of the entries so far:
Target	log2 fold change [10]	log2 fold change [3]
AMPD3 isoform 4 (UniProt Q01432)	inactive: -0.033	inactive: -0.019
ALKBH4 (UniProt Q9NXW9)	inactive: -0.133	inactive: -0.031
